Values from PubChem BioAssay AID743121 (NCATS, 2013).

Test: 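Genes whose silencing strengthens cell killing by camptothecin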 (primary screen)
Cells: MDA-MB-231 cells, a human breast cancer line
Reagent: single siRNA against human genes, 20 nM siRNA (0.8 pmol per well)
Time to read-out: 120 h (drug added 48 h after transfection, read 72 h later)
Treatment: camptothecin 20 nM (about EC30) for 72 h; vehicle 0.1% DMSO in parallel plates
Detection: 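CellTiter-Glo ATP signal, scaled to control siRNA as percent viability; sensitisation given as log2 of untreated divided by camptothecin-treated viability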
Scale: log2 vehicle/camptothecin viability: higher = stronger sensitisation to camptothecin
Call rule: 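Active genes have an RSA gene-level p-value below 0.001, computed from the ratios of their separate siRNAs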
The whole screen tested about 26,000 reagents; shown is a part drawn at random. Of all reagents, 167 (0.63%) were called active. 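Calls are per gene from RSA p-values that are not deposited; an individual active-marked siRNA can sensitise only weakly.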 The numbers tell different reagents against one gene apart. Further read-outs or replicates are left out here.

With QRICH1 #1, what was measured?
log2 vehicle/camptothecin viability: -0.0693; activity call: inactive

How did the screen score QRICH1 #2?
log2 vehicle/camptothecin viability: -0.202; activity call: inactive

For QRICH1 #3, what does the deposit list?
log2 vehicle/camptothecin viability: -0.151; activity call: inactive

With QRICH1 #4, what does the deposit list?
log2 vehicle/camptothecin viability: 0.0922; activity call: inactive

What is on record for PKDCC #1?
log2 vehicle/camptothecin viability: -0.011; activity call: inactive

How did the screen score PKDCC #2?
log2 vehicle/camptothecin viability: -0.241; activity call: inactive

For PKDCC #3, what was measured?
log2 vehicle/camptothecin viability: 0.133; activity call: inactive

How did the screen score PKDCC #4?
log2 vehicle/camptothecin viability: -0.268; activity call: inactive

Reformatted: entries from further up.
PKDCC #3
- log2 vehicle/camptothecin viability: 0.133
- activity call: inactive

PKDCC #4
- log2 vehicle/camptothecin viability: -0.268
- activity call: inactive

Next entries follow.
What is on record for CCNG2 #1?
log2 vehicle/camptothecin viability: -0.138; activity call: inactive

For CCNG2 #2, what was measured?
log2 vehicle/camptothecin viability: -0.12; activity call: inactive

Which result is listed for CCNG2 #3?
log2 vehicle/camptothecin viability: -0.308; activity call: inactive

For CCNG2 #4, how do the results read?
log2 vehicle/camptothecin viability: -0.215; activity call: inactive

For WARS2 #1, what does the deposit list?
log2 vehicle/camptothecin viability: -0.374; activity call: inactive

With WARS2 #2, what was measured?
log2 vehicle/camptothecin viability: -0.0627; activity call: inactive

For WARS2 #3, how do the results read?
log2 vehicle/camptothecin viability: -0.0973; activity call: inactive

With WARS2 #4, what was measured?
log2 vehicle/camptothecin viability: 0.00295; activity call: inactive

What is on record for CAPN12 #1?
log2 vehicle/camptothecin viability: -0.334; activity call: inactive

For CAPN12 #2, what does the deposit list?
log2 vehicle/camptothecin viability: -0.615; activity call: inactive

For CAPN12 #3, how do the results read?
log2 vehicle/camptothecin viability: 0.198; activity call: inactive

What is on record for CAPN12 #4?
log2 vehicle/camptothecin viability: -0.275; activity call: inactive

For HFE #1, what does the deposit list?
log2 vehicle/camptothecin viability: -0.51; activity call: inactive

For HFE #2, what does the deposit list?
log2 vehicle/camptothecin viability: 0.374; activity call: inactive

With HFE #3, what does the deposit list?
log2 vehicle/camptothecin viability: -0.088; activity call: inactive

With HFE #4, how do the results read?
log2 vehicle/camptothecin viability: -0.291; activity call: inactive
